These are literature values, as cited in US20070254905A1, “Pharmaceutical Formulation for Increasing Solubility of 10-Hydroxycamptothecin Compounds in Non-Aqueous Polar Solvents” (priority 2004, published 2007).

A value given as a limit tells only on which side of the number the result lay.

For this data set the following is noted: cited from earlier work.

For `CC[C@@]1(O)C(=O)OCc2c1cc1n(c2=O)Cc2cc3ccccc3nc2-1` [camptothecin, (S)-4-Ethyl-4-hydroxy-1H-pyrano[3′,4′:6,7]indolizino[1,2-b]quinoline-3,14(4H,12H)-dione], under “active lactone form”, the “Solubility in water of the active lactone form” value is “not more than 10 μg/ml”. In addition, where the note is “inactive carboxy anion form”, the “Solubility in water of the carboxy anion form” value is not below 4 mg/mL.
